Measured values taken from paper PMC5484351.
These are yes or no findings as the source states them, for the method shown. Where a sequence is shown, tags or fusion partners need not be part of it.

Experiments:
[1] = target: Saccharomyces cerevisiae Atf1p (recombinant Atf1p-V5-His10) (S. cerevisiae) (UniProt P40353); assay: SEC; Superdex 200 10/300 GL, without detergent or with DDM in the buffer; both purified
[2] = target: Saccharomyces cerevisiae Atf1p (recombinant Atf1p-V5-His10) (S. cerevisiae) (UniProt P40353); assay: SEC; Superdex 200 10/300 GL, Thesit kept in the SEC buffer (detergents at 2–4 x CMC), column calibrated with protein standards; both purified

B1: Saccharomyces cerevisiae Atf1p (recombinant Atf1p-V5-His10) (enzyme, UniProt P40353 1-525)
chain: MNEIDEKNQAPVQQECLKEMIQNGHARRMGSVEDLYVALNRQNLYRNFCTYGELSDYCTRDQLTLALREICLKNPTLLHIVLPTRWPNHENYYRSSEYYSRPHPVHDYISVLQELKLSGVVLNEQPEYSAVMKQILEEFKNSKGSYTAKIFKLTTTLTIPYFGPTGPSWRLICLPEEHTEKWKKFIFVSNHCMSDGRSSIHFFHDLRDELNNIKTPPKKLDYIFKYEEDYQLLRKLPEPIEKVIDFRPPYLFIPKSLLSGFIYNHLRFSSKGVCMRMDDVEKTDDVVTEIINISPTEFQAIKANIKSNIQGKCTITPFLHVCWFVSLHKWGKFFKPLNFEWLTDIFIPADCRSQLPDDDEMRQMYRYGANVGFIDFTPWISEFDMNDNKENFWPLIEHYHEVISEALRNKKHLHGLGFNIQGFVQKYVNIDKVMCDRAIGKRRGGTLLSNVGLFNQLEEPDAKYSICDLAFGQFQGSWHQAFSLGVCSTNVKGMNIVVASTKNVVGSQESLEELCSIYKALLLGP
For B1, the binding [1] was “no binding” and the binding [2] was “no binding”.
